Data from the supplement of paper PMC6414424.
Counter-ions that a name gives are not always drawn. ± gives the standard deviation of the averaged measurements. The list shows a part of the results.

system: APPdp1-6 iPSC-derived neurons; experiment: pThr231Tau/total Tau ratio Z-score vs DMSO vehicle wells; higher = more pThr231Tau relative to total Tau; conditions: 5 µM; treatment time 5 days

Compound | pThr231Tau/total Tau ratio Z-score
Cc1ccc(NC(=O)c2ccc(CN3CCN(C)CC3)cc2)cc1Nc1nccc(-c2cccnc2)n1 [Prestw-1290] | 0.361 ± 0.24
CCOC(=O)COc1ccc2c(=O)cc(-c3ccccc3)oc2c1 | 0.62 ± 0.75
CCCC1C(=O)N2C(N(C)C)=Nc3ccc(C)cc3N2C1=O (stereo unspecified) [Prestw-1003] | 1.16 ± 1.6
Clc1ccc(C(Cn2ccnc2)OCc2ccsc2Cl)c(Cl)c1 (stereo unspecified) [Prestw-1184] | -1.18 ± 0.56
C[C@](N)(Cc1ccc(O)c(O)c1)C(=O)O [Prestw-326] | -0.523 ± 1.1
c1cnc(N2CCN(Cc3ccc4c(c3)OCO4)CC2)nc1 [Prestw-980] | -0.657 ± 0.64
C1CCC(C(CC2CCCCN2)C2CCCCC2)CC1 (stereo unspecified) [Prestw-286] | -2.14 ± 1.2
CCc1nc(N)nc(N)c1-c1ccc(Cl)cc1 [Prestw-37] | -0.00774 ± 0.15
CC(=O)[C@@]1(O)CC[C@H]2[C@@H]3C[C@H](C)C4=CC(=O)C=C[C@]4(C)[C@@]3(F)[C@@H](O)C[C@@]21C [Prestw-718] | -0.473 ± 0.8
CC(C)NCC(O)COc1ccc(CCOCC2CC2)cc1 (stereo unspecified) [Prestw-382] | 1.04 ± 1.1
COc1cc(C(=O)NCc2ccc(OCCN(C)C)cc2)cc(OC)c1OC [Prestw-80] | 0.252 ± 0.03
O=C(O)CCNC(=O)c1ccc(N=Nc2ccc(O)c(C(=O)O)c2)cc1 [Prestw-730] | 0.251 ± 1.4
Cc1cc(C(C)(C)C)c(O)c(C(C)(C)C)c1 | 0.876 ± 0.15
COc1ccc(-c2cc(=S)ss2)cc1 [Prestw-1223] | 0.046 ± 0.55
O=C(O)c1cn(C2CC2)c2cc(N3CCNCC3)c(F)cc2c1=O [Prestw-113] | 0.579 ± 0.6
COC(=O)Nc1nc2ccc(Sc3ccccc3)cc2[nH]1 [Prestw-210] | -3.41 ± 0.85
Nc1ccccc1S(N)(=O)=O [Prestw-913] | 4 ± 7.1
COc1ccccc1Oc1c(NS(=O)(=O)c2ccc(C(C)(C)C)cc2)nc(-c2ncccn2)nc1OCCO [Prestw-1244] | -0.414 ± 0.71
OCc1cccnc1 [NICOTINYL TARTRATE    Therap cat: vasodilator] | 1.37 ± 0.8
CN1CCC[C@@H]1Cc1c[nH]c2ccc(CCS(=O)(=O)c3ccccc3)cc12 [ELETRIPTAN HYDROBROMIDE, 5-HT agonist, anti-migrane] | 0.462 ± 1.1
CC(C)[N+](C)(CCOC(=O)C1c2ccccc2Oc2ccccc21)C(C)C [Prestw-827] | 0.38 ± 1.8
CCC[C@@H]1C[C@@H](C(=O)N[C@@H]([C@H]2O[C@H](SC)[C@H](O)[C@@H](O)[C@H]2O)[C@H](C)Cl)N(C)C1 [Prestw-137] | 4.67 ± 0.32
O=C(N[C@H](CO)[C@H](O)c1ccc([N+](=O)[O-])cc1)C(Cl)Cl [Prestw-31] | 1.16 ± 0.24
O=C(O)CCNC(=O)c1ccccc1 | 1.94 ± 2
C[n+]1c2cc(N)ccc2cc2ccc(N)cc21 | -2.84 ± 1.4
Cc1ccc2c(c1)c1c3n2CCNC3CCC1 (stereo unspecified) [Prestw-973] | -0.413 ± 0.56

Reprinted from the listing for reference:
Compound | pThr231Tau/total Tau ratio Z-score
OCc1cccnc1 [NICOTINYL TARTRATE    Therap cat: vasodilator] | 1.37 ± 0.8
CN1CCC[C@@H]1Cc1c[nH]c2ccc(CCS(=O)(=O)c3ccccc3)cc12 [ELETRIPTAN HYDROBROMIDE, 5-HT agonist, anti-migrane] | 0.462 ± 1.1

Later entries:

Compound | pThr231Tau/total Tau ratio Z-score
C=C1/C(=C\C=C2/CCC[C@]3(C)[C@@H]([C@H](C)CCCC(C)C)CC[C@@H]23)C[C@@H](O)C[C@@H]1O [Prestw-1211] | -0.506 ± 0.69
CCOc1ccc2ccccc2c1C(=O)N[C@@H]1C(=O)N2[C@@H]1SC(C)(C)[C@@H]2C(=O)O [NAFCILLIN SODIUM    Therap cat:  Antibacterial] | 0.905 ± 1.7
CCOc1ccc2ccccc2c1C(=O)N[C@@H]1C(=O)N2[C@@H]1SC(C)(C)[C@@H]2C(=O)O [Prestw-843] | -0.977 ± 0.84
CC(C)(CO)C(O)C(=O)NCCCO (stereo unspecified) [Prestw-22] | 0.588 ± 0.87
CN(C)C/C=C(/c1ccc(Br)cc1)c1cccnc1 [Prestw-92] | 1.55 ± 1
CCN(CC)CCNC(=O)c1cc(Cl)c(N)cc1OC [Prestw-209] | 0.579 ± 0.43
CC1=NN(c2ccccc2)C(=O)C1 | 2.12 ± 1.7
Cn1cnc2c1c(=O)[nH]c(=O)n2C [Prestw-874] | -1.22 ± 0.5
Cc1c(-c2ccccc2)oc2c(C(=O)OCCN3CCCCC3)cccc2c1=O [Prestw-242] | 0.817 ± 0.74
CCCCCCCCCCCCCCCCCCCCCCO [DOCOSANOL, antiviral] | 0.893 ± 0.56
CN(N=O)C(=O)N[C@@H]1[C@@H](O)[C@H](O)[C@@H](CO)O[C@@H]1O [Prestw-732] | -0.79 ± 0.67
NCCCC(=O)O [Gamma-Aminobutyric acid] | 1.7 ± 0.12
O=C(OC1C[C@@H]2CC3C[C@H](C1)N2CC3=O)c1c[nH]c2ccccc12 (stereo partly specified) [Prestw-1510] | 0.253 ± 0.27
CN[C@@H]1[C@@H](O[C@H]2O[C@H](CO)[C@@H](N)[C@H](O)[C@H]2O)OC2C[C@@H](N)[C@@H](O[C@H]3[C@H](O)[C@@H](O)[C@H](N)C[C@@H]3N)OC2[C@@H]1O (stereo partly specified) [Prestw-1005] | 0.402
C#Cc1cccc(Nc2ncnc3cc(OCCOC)c(OCCOC)cc23)c1 [Prestw-1242] | -1.74 ± 0.49
CN[C@@H]1[C@H](O[C@H]2[C@H](O[C@H]3[C@H](O)[C@@H](O)[C@H](N=C(N)N)[C@@H](O)[C@@H]3N=C(N)N)O[C@@H](C)[C@]2(O)CO)O[C@@H](CO)[C@H](O)[C@H]1O [Prestw-159] | 0.347 ± 0.3
Cc1onc(-c2ccccc2Cl)c1C(=O)N[C@@H]1C(=O)N2[C@@H]1SC(C)(C)[C@@H]2C(=O)O [Prestw-186] | -0.166 ± 2.3
N[C@@H](C(=O)N[C@@H]1C(=O)N2C(C(=O)O)=C(Cl)CC[C@H]12)c1ccccc1 [Prestw-1431] | -0.9929 ± 0.0025
NS(=O)(=O)c1cc2c(cc1Cl)NC=NS2(=O)=O [Prestw-251] | -0.393 ± 0.52
N#Cc1ccc(C2CCCc3cncn32)cc1 (stereo unspecified) [Prestw-1515] | -0.689 ± 0.046
Nc1ccc(S(=O)(=O)[O-])cc1.Nc1ccc(S(=O)(=O)[O-])cc1.O.O.O.O.[Zn+2] [SULFANILATE ZINC, antibacterial] | 0.828 ± 1.1
CN[C@@H]1[C@H](O)[C@H](NC)[C@H]2O[C@@]3(O)C(=O)C[C@@H](C)O[C@H]3O[C@@H]2[C@H]1O [Prestw-804] | -0.794 ± 0.6
NS(=O)(=O)c1cc2c(cc1Cl)NC(C(Cl)Cl)NS2(=O)=O (stereo unspecified) [Prestw-825] | 0.217 ± 0.55
C/C(=C(/CCO)SSCC1CCCO1)N(C=O)Cc1cnc(C)nc1N (stereo unspecified) [Prestw-1007] | 0.676 ± 0.43
CC(=O)O[C@H]1C(=O)[C@@]2(C)[C@H]([C@H](OC(=O)c3ccccc3)[C@]3(O)C[C@H](OC(=O)[C@H](O)[C@@H](NC(=O)c4ccccc4)c4ccccc4)C(C)=C1C3(C)C)[C@]1(OC(C)=O)CO[C@@H]1C[C@@H]2O [Prestw-155] | -3.14 ± 0.46
